Test results as given in patent US20210206856A1.
Results are given in words; binding and its absence hold for the method and conditions named. Some binding calls cover weakened binding; strength is not graded here.

Amino acid sequences for entries named in this document (tags omitted). A change or cut given only in a name is not applied to a line headed by its entry. Residues count along the entry.
UniProt Q13477: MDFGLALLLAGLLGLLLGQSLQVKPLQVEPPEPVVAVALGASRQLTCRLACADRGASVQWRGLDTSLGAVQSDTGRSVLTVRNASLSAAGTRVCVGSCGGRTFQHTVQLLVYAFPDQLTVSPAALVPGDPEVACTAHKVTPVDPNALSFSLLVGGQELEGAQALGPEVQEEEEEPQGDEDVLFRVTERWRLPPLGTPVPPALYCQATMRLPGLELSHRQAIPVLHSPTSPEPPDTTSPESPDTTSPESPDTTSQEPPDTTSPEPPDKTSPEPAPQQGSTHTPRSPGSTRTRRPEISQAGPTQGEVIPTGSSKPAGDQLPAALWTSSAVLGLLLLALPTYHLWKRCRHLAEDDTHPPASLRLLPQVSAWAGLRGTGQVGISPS
human MAdCAM expressed on cells: residues 19-382 of Q13477
recombinant human MAdCAM protein: residues 19-317 of Q13477
UniProt Q61826: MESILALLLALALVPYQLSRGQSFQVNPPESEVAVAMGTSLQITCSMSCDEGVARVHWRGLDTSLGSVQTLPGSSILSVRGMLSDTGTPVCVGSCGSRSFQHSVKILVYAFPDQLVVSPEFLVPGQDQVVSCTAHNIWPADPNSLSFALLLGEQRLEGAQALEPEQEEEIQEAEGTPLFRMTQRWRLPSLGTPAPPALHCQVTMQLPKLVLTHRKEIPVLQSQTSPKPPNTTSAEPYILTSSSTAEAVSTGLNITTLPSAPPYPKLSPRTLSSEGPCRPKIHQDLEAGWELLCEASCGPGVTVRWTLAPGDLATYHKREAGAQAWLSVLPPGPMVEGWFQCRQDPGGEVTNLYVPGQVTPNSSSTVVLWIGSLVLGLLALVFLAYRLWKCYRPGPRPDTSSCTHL
mouse MAdCAM expressed on cells: residues 22-405 of Q61826
recombinant mouse MAdCAM-1: residues 22-365 of Q61826

Tests used:
[1] = target: human MAdCAM expressed on cells (human) (UniProt Q13477); test: cell binding
[2] = target: mouse MAdCAM expressed on cells (mouse) (UniProt Q61826); test: cell binding
[3] = target: recombinant human MAdCAM protein (human) (UniProt Q13477); test: Octet
[4] = target: recombinant mouse MAdCAM-1 (mouse) (UniProt Q61826); test: Octet

Measured: binding

B1: MAdCAM Antibody Table 2 Clone 3 (antibody, human IgG1, V domains shown)
VH: QVQLVQSGAEVKKPGASVKVSCKASGYPFIGQYLHWVRQAPGQGLEWMGIINPSGGSTSYAQKFQGRVTMTRDTSTSTVYMELSSLRSEDTAVYYCAREGRLSYGMDAWGQGTLVTVSS
VL: DIQMTQSPSSLSASVGDRVTITCRASQSISSYLAWYQQKPGKAPKLLIYGASTLESGVPSRFSGSGSGTDFTLTISSLQPEDFATYYCQQTWGPPFTFGQGTKLEIK
binds: [1] | [2]

B2: MAdCAM Antibody Table 2 Clone 4 (antibody, human IgG1, V domains shown)
VH: QVQLVQSGAEVKKPGASVKVSCKASGGTFSSYAISWVRQAPGQGLEWMGSINPSGDTTSYAQKFQGRVTMTRDTSTSTVYMELSSLRSEDTAVYYCAKDKAQWLVGYFDYWGQGTLVTVSS
VL: DIQMTQSPSSLSASVGDRVTITCQASQDISNSLNWYQQKPGKAPKLLIYAASSLQSGVPSRFSGSGSGTDFTLTISSLQPEDFATYYCQQSYSSVITFGQGTKVEIK
binds: all assays above

B3: MAdCAM Antibody Table 2 Clone 5 (antibody, human IgG1, V domains shown)
VH: EVQLLESGGGLVQPGGSLRLSCAASGFTFSSYWMHWVRQAPGKGLEWVSSISPGGSNIDYADSVKGRFTISRDNSKNTLYLQMNSLRAEDTAVYYCAREVQLSHYDYWGQGTLVTVSS
VL: DIQMTQSPSSLSASVGDRVTITCRASQGISNSLAWYQQKPGKAPKLLIYGASSLQSGVPSRFSGSGSGTDFTLTISSLQPEDFATYYCQQANSFPFTFGQGTKVEIK
binds: all assays above

B4: MAdCAM Antibody Table 1 Clone 9 (scFv)
scFv: EVQLLESGGGLVQPGGSLRLSCAASGFTFSDYYMNWVRQAPGKGLEWVSVIGESGGSTYYADSVKGRFTISRDNSKNTLYLQMNSLRAEDTAVYYCAADPVSRWPKHGGGDYWGQGTLVTVSSGGGGSGGGGSGGGGSGGGGSDIQMTQSPSSLSASVGDRVTITCRASQGISSSLAWYQQKPGKAPKLLIYAASTLQSGVPSRFSGSGSGTDFTLTISSLQPEDFATYYCQQSYSTPWTFGQGTKVEIK
binds: all assays above
